Measurements reported in PubChem BioAssay AID1508588 (Peter MacCallum Cancer Centre, 2020)
Purpose: 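Genome-wide search for knock-downs that heighten vemurafenib action in melanoma cells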 (primary screen). Cells: human WM266.4 melanoma cells (BRAF V600 mutant). Reagents: siRNA pool against human genes, 40 nM. Timing: 96 h from transfection to read-out. Treatment: vemurafenib 300 nM (about IC25), added 48 h after transfection, for 48 h; comparison arm got DMSO vehicle only. Detection: 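Cell gain (DAPI nuclei at end minus before drug, mean of two replicates) and medium lactate by absorbance per cell, both as ratio to non-targeting siRNA, also grouped into fold-change classes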. Direction: cell gain with vemurafenib: higher = more cell gain than with non-targeting siRNA; lactate per cell with vemurafenib: higher = more lactate made per cell. Hit rule: 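Enhancement is called by pairing each knock-down's vehicle-arm and drug-arm fold-change classes for viability or glycolysis; which class combinations qualify is not given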. Meaning of the calls: active = enhances vemurafenib effect; inactive = no enhancement seen.
Here is one part, drawn at random, of about 18,000 reagents. 790 of all reagents (4.4%) were called active. 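Calls rest on a combination of fold-change classes in drug and vehicle arms, not all shown here.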 Entries without a mark were called inactive.

Gene,cell gain with vemurafenib,lactate per cell with vemurafenib
TBK1,0.99,0.54
DNA2,0.11,1.07
RANBP2,0.51,0.6
TARS3,0.51,0.88
PHTF2,0.39,0.24
MAP4K1,-0.04,1.94
RPRD1A,0.49,1.18
NFIC,0.87,0.88
UHRF2,0.14,1
TMEM106B,0.53,1.71
DSE,0.99,0.55
OPRL1,0.35,1.44
PIGB,0.68,0.56
RAB44,0.88,0.68
ZG16B,0.37,2.03
SHFL,0.88,0.54
PUS3,0.77,1.08
PVR,0.84,0.46
LAMP5,0.82,0.55
ZNF428,1.27,0.7
MT1E,0.67,1.12
HBP1,0.37,0.56
HNRNPL,0.26,2.23
CST5,0.46,0.77
DOC2B,0.35,1.03
RBM10,0.19 (active),0.14
DNAAF3,0.91,0.68
EPOR,0.36,0.94
TEKT1,0.8,1.07
C20orf204,0.49,0.93
DNAJC24,0.62,0.76
CATSPERD,0.44,0.73
MAGEB1,0.96,0.68
CBS,0.73,0.82
LSM7,0.37 (active),0.52
RNASE12,0.72,0.96
CSF2,0.84,0.64
FKBP14,1.19,1.12
FNTB,0.51,0.62
STC2,0.67,0.96
TNS4,0.59,1.19
FAM3B,0.36,1.84
OR51B4,0.86,0.45
ROMO1,0.82,1.21
CYYR1,0.65,0.34
INSL5,1.55,0.34
CCR4,0.88,0.56
PPP2R1B,0.34,0.82
SERPINA9,0.65,1.28
CACNA2D2,0.55,0.9
RABAC1,0.92,0.64
SLC13A2,0.81,1.23
APBA3,0.22,2.15
GNL2,0.46,1.4
GANC,1.19,0.46
GSAP,1.08,0.68
RHEX,0.3,0.79
KCNJ12,0.64,1.64
NAPB,0.35 (active),0.42
AGAP6,0.77,0.96
OCA2,0.88,0.78
C1orf56,0.96,0.72
TKT,1.03,1.07
CTSF,1.15,0.68
MDGA1,0.8,0.8
METTL1,0.58,0.9
NARS2,0.36,1.59
ZACN,0.61,0.88
PCGF2,1,0.84
VPS33B,0.76 (active),0.44
CIP2A,0.67,1.07
MARK1,0.16 (active),0.71
FFAR4,1.23,0.87
ZNF671,0.5,1.14
ATP5F1B,0.14,2.21
JADE3,1.07,0.67
HTR2A,0.49,1.06
TTLL9,0.54,0.42
LY6G5B,0.61,1.4
ALG2,0.64 (active),0.49
ING5,0.75 (active),0.48
LETM2,1.01,0.88
IDH3G,0.55,0.55
DNAJC25-GNG10,0.87,1.03
PTPN5,0.38,0.99
TEX26,0.59,0.9
ETNK1,1.17,1.02
XCR1,0.97,0.6
SCP2D1,0.14,1.71
PHOX2A,0.92,0.66
SLC2A13,0.34,0.86
SDCBP,0.6,0.32
EML4,0.43,0.97
TMEM268,0.26,2.04
MYBPHL,-0.03,2.4
MAP3K9,0.3,0.78
FGFR1OP2,0.34,0.76
ZNF234,0.49,1.28
TAPBP,0.18,1.77
OR4S2,0.13,1.09
NT5C2,0.85,1.11
CDK5,1.01,0.57
GALC,0.68,0.71
ZNF678,0.38,0.94
CDK5RAP3,0.38,0.78
RELL2,0.59,0.96
PPIL1,0.44,2

Part of the list above in another layout:
{"Gene": "DNAJC25-GNG10", "cell gain with vemurafenib": 0.87, "lactate per cell with vemurafenib": 1.03}
{"Gene": "PTPN5", "cell gain with vemurafenib": 0.38, "lactate per cell with vemurafenib": 0.99}
{"Gene": "TEX26", "cell gain with vemurafenib": 0.59, "lactate per cell with vemurafenib": 0.9}
{"Gene": "ETNK1", "cell gain with vemurafenib": 1.17, "lactate per cell with vemurafenib": 1.02}
{"Gene": "XCR1", "cell gain with vemurafenib": 0.97, "lactate per cell with vemurafenib": 0.6}
{"Gene": "SCP2D1", "cell gain with vemurafenib": 0.14, "lactate per cell with vemurafenib": 1.71}
{"Gene": "PHOX2A", "cell gain with vemurafenib": 0.92, "lactate per cell with vemurafenib": 0.66}
